Measurements published in PMC12718634.

The chains behind the UniProt entries cited, without tags or fusion partners.
UniProt P49023: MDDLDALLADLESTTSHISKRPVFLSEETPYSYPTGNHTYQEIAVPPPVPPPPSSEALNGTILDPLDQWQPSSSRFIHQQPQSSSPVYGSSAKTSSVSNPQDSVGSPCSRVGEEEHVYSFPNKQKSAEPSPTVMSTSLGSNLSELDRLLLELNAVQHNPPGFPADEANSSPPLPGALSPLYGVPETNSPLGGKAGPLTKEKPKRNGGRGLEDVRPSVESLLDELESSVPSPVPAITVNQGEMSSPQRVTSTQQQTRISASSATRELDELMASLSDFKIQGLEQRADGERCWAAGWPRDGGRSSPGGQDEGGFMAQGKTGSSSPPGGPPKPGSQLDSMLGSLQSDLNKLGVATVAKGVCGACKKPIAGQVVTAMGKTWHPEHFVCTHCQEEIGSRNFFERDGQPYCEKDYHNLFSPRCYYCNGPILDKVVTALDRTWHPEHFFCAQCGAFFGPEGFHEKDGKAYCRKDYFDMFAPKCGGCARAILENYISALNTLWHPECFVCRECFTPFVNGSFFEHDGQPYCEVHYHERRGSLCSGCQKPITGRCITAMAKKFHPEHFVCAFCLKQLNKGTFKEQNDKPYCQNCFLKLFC
UniProt P26039: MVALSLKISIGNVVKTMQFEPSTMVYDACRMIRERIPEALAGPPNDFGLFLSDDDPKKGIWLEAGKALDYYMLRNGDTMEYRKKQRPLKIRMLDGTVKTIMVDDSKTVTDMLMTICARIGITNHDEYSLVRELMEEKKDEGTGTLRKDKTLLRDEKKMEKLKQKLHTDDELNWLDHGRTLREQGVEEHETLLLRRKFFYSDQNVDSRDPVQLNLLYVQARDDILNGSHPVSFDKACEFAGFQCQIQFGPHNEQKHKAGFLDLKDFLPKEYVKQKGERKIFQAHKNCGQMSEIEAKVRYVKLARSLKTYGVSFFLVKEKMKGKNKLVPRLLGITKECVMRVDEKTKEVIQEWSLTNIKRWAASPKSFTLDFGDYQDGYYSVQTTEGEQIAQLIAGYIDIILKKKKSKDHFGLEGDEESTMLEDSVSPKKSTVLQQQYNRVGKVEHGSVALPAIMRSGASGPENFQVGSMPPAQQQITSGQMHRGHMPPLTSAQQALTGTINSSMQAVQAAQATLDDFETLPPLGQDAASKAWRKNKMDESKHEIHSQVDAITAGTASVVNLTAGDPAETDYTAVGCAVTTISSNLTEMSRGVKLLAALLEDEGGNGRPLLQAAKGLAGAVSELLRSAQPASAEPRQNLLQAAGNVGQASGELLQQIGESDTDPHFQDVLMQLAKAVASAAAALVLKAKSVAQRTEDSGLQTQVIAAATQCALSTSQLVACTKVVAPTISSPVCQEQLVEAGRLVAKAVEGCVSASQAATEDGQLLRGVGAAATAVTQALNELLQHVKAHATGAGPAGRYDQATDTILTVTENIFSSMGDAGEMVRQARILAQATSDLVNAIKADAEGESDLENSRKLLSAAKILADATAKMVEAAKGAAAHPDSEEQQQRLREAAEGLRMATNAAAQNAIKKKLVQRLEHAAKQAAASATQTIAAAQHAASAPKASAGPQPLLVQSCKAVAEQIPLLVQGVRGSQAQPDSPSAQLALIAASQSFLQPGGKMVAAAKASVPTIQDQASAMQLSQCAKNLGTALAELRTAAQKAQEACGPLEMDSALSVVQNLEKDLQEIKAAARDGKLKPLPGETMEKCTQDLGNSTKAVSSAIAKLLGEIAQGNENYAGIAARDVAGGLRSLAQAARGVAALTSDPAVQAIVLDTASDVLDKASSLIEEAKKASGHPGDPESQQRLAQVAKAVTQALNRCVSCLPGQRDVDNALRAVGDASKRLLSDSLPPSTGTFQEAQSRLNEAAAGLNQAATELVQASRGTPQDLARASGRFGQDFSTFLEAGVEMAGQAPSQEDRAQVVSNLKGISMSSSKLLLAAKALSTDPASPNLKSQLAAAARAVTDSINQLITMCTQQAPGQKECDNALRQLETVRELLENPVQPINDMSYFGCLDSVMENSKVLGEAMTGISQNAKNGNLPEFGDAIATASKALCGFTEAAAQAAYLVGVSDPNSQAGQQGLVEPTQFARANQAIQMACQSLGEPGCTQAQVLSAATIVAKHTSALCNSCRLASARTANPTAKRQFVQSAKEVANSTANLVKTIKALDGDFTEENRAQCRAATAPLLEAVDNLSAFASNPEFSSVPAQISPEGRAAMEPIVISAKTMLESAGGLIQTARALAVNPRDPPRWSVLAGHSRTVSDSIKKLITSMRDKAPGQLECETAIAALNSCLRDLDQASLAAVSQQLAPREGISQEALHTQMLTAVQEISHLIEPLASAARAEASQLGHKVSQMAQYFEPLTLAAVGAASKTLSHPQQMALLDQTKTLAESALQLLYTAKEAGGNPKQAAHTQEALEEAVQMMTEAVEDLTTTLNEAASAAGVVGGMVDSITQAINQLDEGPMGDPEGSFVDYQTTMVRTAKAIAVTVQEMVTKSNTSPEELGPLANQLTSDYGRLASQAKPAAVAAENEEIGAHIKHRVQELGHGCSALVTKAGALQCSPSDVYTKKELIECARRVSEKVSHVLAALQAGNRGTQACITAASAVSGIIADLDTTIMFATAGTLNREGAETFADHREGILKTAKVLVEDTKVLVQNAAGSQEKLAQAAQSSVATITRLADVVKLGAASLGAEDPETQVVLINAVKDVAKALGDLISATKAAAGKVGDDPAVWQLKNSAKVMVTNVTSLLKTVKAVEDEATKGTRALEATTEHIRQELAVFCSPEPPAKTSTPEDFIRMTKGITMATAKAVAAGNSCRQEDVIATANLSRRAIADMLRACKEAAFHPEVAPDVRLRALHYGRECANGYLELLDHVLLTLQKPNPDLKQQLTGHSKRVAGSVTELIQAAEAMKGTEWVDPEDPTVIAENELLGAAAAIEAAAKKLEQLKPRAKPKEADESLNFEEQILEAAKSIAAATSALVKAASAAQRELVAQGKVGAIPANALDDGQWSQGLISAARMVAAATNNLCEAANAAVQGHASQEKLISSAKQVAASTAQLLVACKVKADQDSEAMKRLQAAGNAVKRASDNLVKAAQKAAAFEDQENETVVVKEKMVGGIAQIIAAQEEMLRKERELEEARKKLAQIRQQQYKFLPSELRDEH
UniProt Q8CIN4: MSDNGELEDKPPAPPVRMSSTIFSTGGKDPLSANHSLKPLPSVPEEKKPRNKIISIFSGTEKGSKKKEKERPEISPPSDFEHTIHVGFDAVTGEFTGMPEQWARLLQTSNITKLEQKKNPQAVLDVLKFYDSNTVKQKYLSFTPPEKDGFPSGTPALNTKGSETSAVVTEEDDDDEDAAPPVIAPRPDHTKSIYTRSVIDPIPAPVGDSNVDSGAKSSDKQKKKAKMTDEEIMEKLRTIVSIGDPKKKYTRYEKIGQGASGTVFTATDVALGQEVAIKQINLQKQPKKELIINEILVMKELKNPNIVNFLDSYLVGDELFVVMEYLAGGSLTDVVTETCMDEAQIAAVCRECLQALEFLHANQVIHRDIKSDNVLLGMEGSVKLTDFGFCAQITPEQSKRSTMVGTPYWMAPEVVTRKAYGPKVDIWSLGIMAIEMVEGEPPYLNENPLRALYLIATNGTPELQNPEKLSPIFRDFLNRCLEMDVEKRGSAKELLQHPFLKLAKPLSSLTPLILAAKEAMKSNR
UniProt Q71LX4: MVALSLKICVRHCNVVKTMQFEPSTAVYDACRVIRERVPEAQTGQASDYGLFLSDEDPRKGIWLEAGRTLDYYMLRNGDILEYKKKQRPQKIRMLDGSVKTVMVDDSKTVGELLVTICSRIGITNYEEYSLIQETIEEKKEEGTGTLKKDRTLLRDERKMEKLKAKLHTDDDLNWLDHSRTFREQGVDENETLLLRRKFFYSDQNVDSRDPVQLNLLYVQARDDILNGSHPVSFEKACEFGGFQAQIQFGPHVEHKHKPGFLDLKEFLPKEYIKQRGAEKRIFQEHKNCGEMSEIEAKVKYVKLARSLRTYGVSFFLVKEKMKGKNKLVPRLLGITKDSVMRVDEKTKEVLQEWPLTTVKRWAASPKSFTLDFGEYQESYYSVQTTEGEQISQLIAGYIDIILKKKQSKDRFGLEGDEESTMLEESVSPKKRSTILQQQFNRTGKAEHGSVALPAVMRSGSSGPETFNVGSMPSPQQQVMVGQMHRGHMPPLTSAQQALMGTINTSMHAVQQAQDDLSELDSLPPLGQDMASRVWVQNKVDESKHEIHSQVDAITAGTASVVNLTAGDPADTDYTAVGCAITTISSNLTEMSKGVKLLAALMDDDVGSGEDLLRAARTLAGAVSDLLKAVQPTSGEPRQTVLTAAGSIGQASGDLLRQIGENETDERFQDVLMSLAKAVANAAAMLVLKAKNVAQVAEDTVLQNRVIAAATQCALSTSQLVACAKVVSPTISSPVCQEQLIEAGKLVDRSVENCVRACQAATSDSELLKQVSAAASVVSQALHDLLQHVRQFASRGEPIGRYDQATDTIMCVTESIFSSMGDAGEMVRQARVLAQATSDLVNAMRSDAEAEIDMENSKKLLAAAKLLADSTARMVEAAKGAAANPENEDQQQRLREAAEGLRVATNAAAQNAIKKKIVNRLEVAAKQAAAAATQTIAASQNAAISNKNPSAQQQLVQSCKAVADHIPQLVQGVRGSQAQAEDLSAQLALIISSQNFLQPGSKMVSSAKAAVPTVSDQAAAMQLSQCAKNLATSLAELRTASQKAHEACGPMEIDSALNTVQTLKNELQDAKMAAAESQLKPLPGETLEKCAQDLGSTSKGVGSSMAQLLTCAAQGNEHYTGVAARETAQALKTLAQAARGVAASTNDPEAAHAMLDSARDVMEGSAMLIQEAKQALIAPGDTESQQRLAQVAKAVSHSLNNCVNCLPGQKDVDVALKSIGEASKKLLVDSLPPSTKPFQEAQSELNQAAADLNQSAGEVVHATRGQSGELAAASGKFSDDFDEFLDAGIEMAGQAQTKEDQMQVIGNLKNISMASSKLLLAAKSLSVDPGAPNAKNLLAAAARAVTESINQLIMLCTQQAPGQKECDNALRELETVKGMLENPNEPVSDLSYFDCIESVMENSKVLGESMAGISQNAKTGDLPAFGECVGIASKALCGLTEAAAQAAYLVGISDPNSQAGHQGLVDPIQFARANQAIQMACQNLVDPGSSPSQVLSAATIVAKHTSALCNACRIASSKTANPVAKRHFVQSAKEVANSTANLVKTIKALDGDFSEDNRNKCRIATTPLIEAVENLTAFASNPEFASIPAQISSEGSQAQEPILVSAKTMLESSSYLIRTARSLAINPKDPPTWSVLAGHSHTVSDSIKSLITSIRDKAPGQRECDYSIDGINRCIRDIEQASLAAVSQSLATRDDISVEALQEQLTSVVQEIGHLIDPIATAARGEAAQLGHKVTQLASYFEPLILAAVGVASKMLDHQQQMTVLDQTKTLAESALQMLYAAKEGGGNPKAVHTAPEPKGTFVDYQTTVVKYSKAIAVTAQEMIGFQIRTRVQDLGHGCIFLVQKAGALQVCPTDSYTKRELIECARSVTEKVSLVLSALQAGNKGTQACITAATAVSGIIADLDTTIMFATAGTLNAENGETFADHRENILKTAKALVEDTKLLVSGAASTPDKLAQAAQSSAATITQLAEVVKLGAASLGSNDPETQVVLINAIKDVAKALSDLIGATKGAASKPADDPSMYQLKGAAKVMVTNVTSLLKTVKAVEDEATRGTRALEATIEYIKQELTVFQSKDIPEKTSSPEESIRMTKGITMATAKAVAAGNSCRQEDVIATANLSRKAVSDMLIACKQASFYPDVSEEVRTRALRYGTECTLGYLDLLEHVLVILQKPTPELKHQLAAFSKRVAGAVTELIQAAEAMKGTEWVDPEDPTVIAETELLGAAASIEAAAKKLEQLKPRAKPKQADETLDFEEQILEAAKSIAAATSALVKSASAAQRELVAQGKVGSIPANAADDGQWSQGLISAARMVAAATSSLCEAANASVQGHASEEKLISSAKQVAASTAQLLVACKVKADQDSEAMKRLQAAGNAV

Target: GFP-BirA*-Paxillin (UniProt P49023)
Test: proximity labelling; Bio-ID: GFP-BirA*-Paxillin as bait, stably expressed in B16-F1 control and Cyri-b KO cells on laminin; biotin or DMSO for 16 h; biotinylated proteins captured on NeutrAvidin agarose, on-bead digestion, mass spectrometry (label-free quantification)

Molecule: talin-1 (from UniProt P26039 1-2541)
- binding: binds

Molecule: PAK2 (from UniProt Q8CIN4 1-524)
- binding: binds

B1: Kank2 (protein, UniProt Q8BX02 1-843)
chain: MAQVLHVPAPFPGTPGQASPAAFPSKEPDPPYSVETPYGYRLDLDFLKYVDDIEKGHTLRRVAVQRRPRLGSLPRGPGSWWTSTESLCSDASGDSRHSAYSYCGRGFYPQYGALETRIGSNPRVERTLLDARRRLEDQAAAPSSGGLGSLTPSAAGSTSSLAGVGLLPPTPRSSGLSTPVAPSAGHLAHVREQMAGALRKLRQLEEQVKLIPVLQVKLSVLQEEKRQLTVQLKSQKFLGHPSGTRSRSELCLDLPEAPDDPAALETRSVGTWVRERDLGIPDGEAALVAKVAVLETQLKKALQELRAAQTQQVDLQPQAWPPPDTQVRVDTVRVVEGPREVEVAASTAAGALAQRAQSLEPYGTGLKALTTSGGPENTLVFRSHEVVETMCPLPTATTGNVHTAKKISITERSCTGAPRMTEPSSVNPRPAAASVVQPENPVPAAQDTTDKKPTRPAAASQDSQAADGAGRASLATKRKEDPADPEVNQRNLQFVGVNGGYESPSEDSSTAENSEHESTENEGPEPPARVLSPAECPQLRPPGAAVATTSLEGPQLSQESQRVPAPEVASGPDPEEEIRMDLSPDLISACLALEKYLENPNALTERELKVAYTTVLQEWLRLACRSDAHPELVRRHLVTFRAMSARLLDYVVNIADSNGNTALHYSVSHANFPVVRQLLDSGVCHVDKLNRAGYSPIMLTALATLKTQDDIETILQLFRLGNVNAKASQAGQTALMLAVSHGRVDVVRALLACEADVNIQDEDGSTALMCACEHGHKEITGLLLAVPSCDISLTDRDGSTALMVALDAGQSEIASMLYSRMNIKCSFAPMSDYESPASSSAEE
- binding: binds

B3: pragmin (protein, UniProt Q571I4 1-1373)
chain: MSACSDFVEHIWKPGSCKNCFCLRSDHQPTAGHPKARANSLPAGTRLPARPENCRLDDEGVNGLAYSKPTIAVKPTMMTSETSDLWTEASLSAEVPKVNWRRTPGKLLLPKQEDEPIVYLGSFRGLQKPASPLACTDGNSRCPPAYTMVGLHNLEARVDRNTAFQPVSFQEEKAGREELPSAHESFRQKLAAFAGMTSSCPKGPRPCTSPQPLRESLPSEDDSDQRCSPSGDSEGGEYCSILDCCPESKDAVHSTEGSGRRGGDCSPTCREQGPRTRPTEEEKQGLSFPRECCGQGSTANPPRLGPKKPSLNSEAASSSDGLSCGSSRSGASSPFAPHLENDYCSLVKEPASGKQQDLSGHFLTSGKCVGQAAELQPASLLRDPVQPEPIYAESAKRKKAAPGPPRPEPKKEQVPAGHSQGQVWTGDTWIQKTPPSWSQDREGANPAPQVATTITVIAAHPEEDHRTIYLSSPDSAVGVQWPRGPSNQDLQAGEEEPLVAQGLTSRESHPHNVTENTAKEKPAIPPKLSKSSPGGSPVSPAPPLTDHSDGNTGGSSVGPQLLSRVPANLTSSCHTNGVATAGDSAKCPPPATSSSVLDQRRPRYQTGAWSRQCRIEEEEEVGQELSQSWGRELENGTADHSNSSTWHRLHPIDGTSGQNSKTNSGMSKSASFAFEFPKDRGRLEAFSPPPPPPKSRHLLKMNKSSSDLEKVSQSSAESLSPSFRGAHVSFTTGSTDSLASDSRPCSDGGPSYEPTHSPTISGKKLFAPVPFPSGSTEDVSPGGGPAQPPPLPQKKIVSRAASSPDGFFWTQGSPKPRTASPKLNLSHSETNVCAHDEPPFNCSLNSGNRSHHVFSSSEPLGKAFKGNAPWAPALGLANSKGGCGSPSLQCRAATSTSSSQLSVSSQASSSSTQLQLHSLLSSISSKEGTYAKLGGLYTQSLARLVTKCEDLFMGGQKKELRFNENYWSLFKLTCNKPCCDSGDAIYYCATCSEDPGSIYAVKICKTPEPKSASYCSPSVPVHFNIQQDCGHFVASVPSSMLASPDTSSKDTAPAVSPQPPAQEQDCVVVITREVPHQTASDFVRDSMASHRAEPEVYERRVCFLLLQLCNGLEHLKEHGIIHRDLCLENLLLAHCNPQSSPGPSATPTVPTTTSRCPSAAPAATTACQGGPGEKQLPRLIISNFLKAKQKPGGTTNLQQKKSQARLAPEIVSASQYRKFDEFQTGILIYELLHQPNPFEVRAQLRERDYRREDLPPLPTLSLYSPGLQQLAHLLLEADPIKRIRIGEAKRVLQCLLWGPRRELVEQPCTSEEVLCNTLHNWIDMKRALMMMKFAEKAVDRRRGVELEDWLCCQYLASAEPGALLQSLKLLQLL
- binding: binds

B5: ERC1 (protein, UniProt Q99MI1 1-1120)
chain: MYGSARSVGKVEPSSQSPGRSPRLPRSPRLGHRRTNSTGGSSGNSVGGGSGKTLSMENIQSLNAAYATSGPMYLSDHENVGAETPKSTMTLGRSGGRLPYGVRMTAMGSSPNIASSGVASDTIAFGEHHLPPVSMASTVPHSLRQARDNTIMDLQTQLKEVLRENDLLRKDVEVKESKLSSSMNSIKTFWSPELKKERALRKDEASKITIWKEQYRVVQEENQHMQMTIQALQDELRIQRDLNQLFQQDSSSRTGEPCVAELTEENFQRLHAEHERQAKELFLLRKTLEEMELRIETQKQTLNARDESIKKLLEMLQSKGLSAKATEEDHERTRRLAEAEMHVHHLESLLEQKEKENNMLREEMHRRFENAPDSAKTKALQTVIEMKDSKISSMERGLRDLEEEIQMLKSNGALSSEEREEEMKQMEVYRSHSKFMKNKVEQLKEELSSKDAQGEELKKRAAGLQSEIGQVKQELSRKDTELLALQTKLETLTNQFSDSKQHIEVLKESLTAKEQRAAILQTEVDALRLRLEEKETMLNKKTKQIQDMAEEKGTQAGEIHDLKDMLDVKERKVNVLQKKIENLQEQLRDKEKQMSSLKERVKSLQADTTNTDTALTTLEEALADKERTIERLKEQRDRDEREKQEEIDTYKKDLKDLREKVSLLQGDLSEKEASLLDIKEHASSLASSGLKKDSRLKTLEIALEQKKEECLKMESQLKKAHEATLEARASPEMSDRIQQLEREISRYKDESSKAQTEVDRLLEILKEVENEKNDKDKKIAELESLTSRQVKDQNKKVANLKHKEQVEKKKSAQMLEEARRREDSLSDSSQQLQDSLRKKDDRIEELEEALRESVQITAEREMVLAQEESARTNAEKQVEELLMAMEKVKQELESMKAKLSSTQQSLAEKETHLTNLRAERRKHLEEVLEMKQEALLAAISEKDANIALLELSSSKKKTQEEVAALKREKDRLVQQLKQQTQNRMKLMADNYEDDHFRSSRSNQTNHKPSPDQIIQPLLELDQNRSKLKLYIGHLTALCHDRDPLILRGLTPPASYNADGEQAAWENELQQMTQEQLQNELEKVEGDNAELQEFANTILQQIADHCPDILEQVVNALEESS
- binding: binds

Other lines, results leading:

- binding: binds
Molecule: talin-2 (from UniProt Q71LX4 1-2375)

- binding: binds
B2: vinexin (protein, UniProt Q9R1Z8 1-733)
chain: MARILGVGRSSASSLNNKEDNESDVALLSPKDPNRVHTKEQLAHPASSNLDPSMQGLPAGLSLDDFIPGHLRTHIGSSSRGTRVPVIRNGGSNTLNFQFHDPAPRTVCNGCPPPRRDGSLNPDPAWYQTWPGPGSRPSMSPKPPASQHAQNWSATWTKDSKRQDKRWVKYEGIGPVDESGMPIAPRSSVDSPRDWYRRMFQQIHRKMPDLQLDWTLEDPPKVVSARASSAEPRHLGTLQRPASRPGTTETSSGRNWNHSEETSRNTFNYNFRPSSSGLHPPNQVPRHREKVENVWTEDSWNQFLHELETGHKPKKPLVDDPVEKPAQPIEVLLERELAKLSAELDKDLRAIETRLPSPKNSQAPRRPLEQPGLEQQPSARLSSAWRPNSPHAPYFSSSRPLSPHRMADGGGSPFLGRRDFVYPSSAREPSASERGSSPSRKEEKKRKAARLKFDFQAQSPKELSLQKGDIVYIHKEVDKNWLEGEHHGRLGIFPANYVEVLPADEIPKPIKPPTYQVLEYGDAVAQYTFKGDLEVELSFRKGERICLIRKVNEHWYEGRITGTGRQGIFPASYVQINREPRLRLCDDGPQLPASPNPTTTAHLSSHSHPSSIPVDPTDWGGRTSPRRSAFPFPITLQEPRSQTQSLNTPGPTLSHPRATSRPINLGPSSPNTEIHWTPYRAMYQYRPQNEDELELREGDRVDVMQQCDDGWFVGVSRRTQKFGTFPGNYVAPV

- binding: binds
B4: tensin3 (protein, UniProt Q5SSZ5 1-1440)
chain: MEDSHELDLTYVTERIIAVSFPASCSEESYLHSLQEVTRMLKCKHGDNYLVLNLSEKRYDLTKLNPKIMDVGWPELHAPPLDKMCTICKAQESWLNNDPQHVVVIHCRGGKGRIGVVISSYMHFTNVSASADQALDRFAMKKFYDDKISALMEPSQKRYVQFLSGLLSGAMKMNTSPLFLHFVIMHGVPSFDTGGACRPFLKLYQAMQPVYTSGIYNVGSENPSRIRIAIEPAQLLKGDIMVKCYHKKFRSATRDVIFRLQFHTGAVQGYGLLFGKEELDSACKDDRFPDYGKIELVFSATPEKIQGSEHLYSDQGVTVDYNTADPLIRWDSYENMSADGEVLHTQGPVDGSLYAKVRKKSASDTGIPSSPQGMPATSSPDHGDHTLSVSSDSGHSTASARTDKTEERLTPGARRGLSPQEKAELDQLLSGFGLEDSASSHKDMTDMRSKYSGTRHVVPAQVHVNGDAALKDRETDILDDEMPHHDLHSVDSLGTLSSSEGPQSTHLGPFTCLKSSQNSLLSDGFGNGVAEDHNGVLSPDLGLGVDTLYDRERMCGGREQKPLQPLLRKPSAPTPVQAYGQSNYSTQTWVRQQQMVAAHQYSFASDGEARLGSRSTVDNTGLAQPPPHIPVTPNRGASSRVAVQRGISNGPNPPDTQQLCPGKALQPRFQDDRVTNGVHQEPNTGSSPGSPTLDIDQSIEQLNRLILELDPTFEPIPTHLNALGISAVCPDGVGSGLRCSGRLDSVDGPGRSPGRQGDDPIGGRLRKLSIGQYDNDAASQVTFSKCGWGKAGVDPAPSLGSFSSPEDIKETVITAYPSDLNMIDGRIPNSKESSMCLTPSFPVSPETPYVKTSPRYPPFSPPEPQLSSPASLHKGREPRGCPEIISHTVGMSESPVGPKPTMLRADMPATPNFQQVFASSCTVSSNGPGQRRESPPSAERQWVESSPKSTLTLLGNSHPSESPLGTHEFCSSGKDSPGLPCFQSSELQASFHSHELSMSEPQGALPPAGSQTFLGFNTVTTATSVLPPGEDAGTLLVNSHGTSPAPGTPLLTTGAADNGFLPHNFLTVSPGASSHHSPGLQNQNVSLPGQPPLPEKKRASEGDRSLGSVSPSSSGFSSPHSGSTMSIPFPNVLPDFCKPSEVASPLPDSPNDKLVIVKFVQDTSKFWYKADISREQAIAMLKDKAPGSFIVRDSHSFRGAYGLAMKVATPPPSVLHLNKKAGDLSNELVRHFLIECTPKGVRLKGCSNEPYFGSLTALVCQHSITPLALPCKLLIPERDPLEEIAENSPQTAANSAAELLKQGAACNVWYLNSVEMESLTGHQAVQKALSMTLVQEPPPVSTVVHFKVSAQGITLTDNQRKLFFRRHYPVSSVIFCALDPQDRKWIKDGPSSKVFGFVARKQGSATDNVCHLFAEHDPEQPASAIVNFVSKVMIGSPKKI

These are yes or no findings as the source states them, for the method shown. In cells and extracts the contact can be indirect. Here binding means that the protein was enriched with, or labelled near, the bait; the list need not be complete. Each block holds one molecule with its values, some of them ahead of it.
